Results as given in PMC2063170, “A phase I clinical and pharmacokinetic study of the new topoisomerase inhibitor GI147211 given as a 72-h continuous infusion” (British Journal of Cancer, 1998).

System: neutrophils and platelets
Test: Pharmacodynamics: sigmoid Emax (Hill) fit of % decrease in neutrophils or platelets vs lactone Css
Assay type: in vivo, patients
Conditions: sigmoid Emax model
Text: Brrtish Joumal of Cancer(1998) 78(10). 1329-1336 @ 1998 Cancer Research Campaign A phase I clinical and pharmacokinetic study of the new topoisomerase inhibitor G1147211 given as a 72-h continuous infusion L Paz-Aresl*, R Kunkal 2, D DeMarial-3, J Cassidy' 4, M Alden3, P Beranek2, S Kaye', D Littlefield2, D Reilly3, S Depee2, P Wissel2, C Twelves' and P O'Dwyer3 CRC Department of Medical Oncology. University of Glasgow. Westem Infirmary Hospital. Glasgow Gll 6NT. UK; 2Glaxo Wellcome Research. Five Moore Drive. Research Triangle Park. NC 27709. USA; 'Fox Chase Cancer Center. 7701 Burholme Avenue. Philadelphia, PA 19111. USA: 4Thomas Jefferson University. Kimmel Cancer Institute. Bluemle Life Sciences Building. 233 S. 10th Street. Suite 502. Philadelphia. PA 19107. […] This study was designed to determine the maximum tolerated dose of Gl147211 as a 72-h infusion and to describe its pharmacokinetics and pharmacodynamics on this schedule. In a single-arm, rising-dose study in patients with advanced cancer, eight cohorts of three or more patients received 72-h infusions of G1147211 at doses ranging from 0.25 to 2.5 mg m-2 day-'. […] Whole-blood G1147211 lactone, total blood and total concentrations were measured during and over the 12 h following the infusion. […] Extensive phase 11 evaluation of this compound and further phase I trials evaluating more prolonged infusions are ongoing. Keywords: G1147211: GG211: camptothecin analogues: topoisomerase I inhibitor; phase I trial; pharmacokinetics: pharmacodynamics: continuous infusion GI 147211 (7-4 methyl piperazinomethilene)- 10.1 1 -ethylenedioxy - 20-(S camptothecin: Figure 1) is a totally synthetic analogue of camptothecin. a natural product isolated from Camptotheca acuminata (WAall et al. 1966: Emerson et al. 1995). […] The nuclear enzyvme DNA topoisomerase I. x hich relaxes DNA supercoils arising during, replication and gene tran- scription. has been identified as the specific targret of camptothecin (Hsianer and Liu. 1988: Wall and Wani. 1995).

CC[C@@]1(O)C(=O)OCc2c1cc1n(c2=O)Cc2c-1nc1cc3c(cc1c2CN1CCN(C)CC1)OCCO3 [GI147211, 7-4 methyl piperazinomethilene)-10.1 1-ethylenedioxy - 20-(S camptothecin]
Emax, % decrease ANC (Figure 4A): 100% | Hill exponent (gamma), % decrease ANC (Figure 4A): 1.213 | Emax, % decrease platelets (Figure 4B): 100% | Hill exponent (gamma), % decrease platelets (Figure 4B): 2.327
